Measurements from PubChem BioAssay AID1259354 (Paczesny and Yang Labs, IUPUI and University of Michigan, 2018).
Among all 78,000 compounds or so, about 1,800 (2.3%) were called active. The inconclusive results got no clear call from the source; some entries with a clear call stand among them for comparison. Rule as the data show it: active = inhibition above about 30%; inconclusive = mostly about 10% to 28%; inactive = weaker than that.

By UniProt entry, the sequences of proteins in these tests, tags left out. Where a name states a change or a piece, a line headed by the entry shows the natural chain unless it says otherwise.
UniProt Q01638: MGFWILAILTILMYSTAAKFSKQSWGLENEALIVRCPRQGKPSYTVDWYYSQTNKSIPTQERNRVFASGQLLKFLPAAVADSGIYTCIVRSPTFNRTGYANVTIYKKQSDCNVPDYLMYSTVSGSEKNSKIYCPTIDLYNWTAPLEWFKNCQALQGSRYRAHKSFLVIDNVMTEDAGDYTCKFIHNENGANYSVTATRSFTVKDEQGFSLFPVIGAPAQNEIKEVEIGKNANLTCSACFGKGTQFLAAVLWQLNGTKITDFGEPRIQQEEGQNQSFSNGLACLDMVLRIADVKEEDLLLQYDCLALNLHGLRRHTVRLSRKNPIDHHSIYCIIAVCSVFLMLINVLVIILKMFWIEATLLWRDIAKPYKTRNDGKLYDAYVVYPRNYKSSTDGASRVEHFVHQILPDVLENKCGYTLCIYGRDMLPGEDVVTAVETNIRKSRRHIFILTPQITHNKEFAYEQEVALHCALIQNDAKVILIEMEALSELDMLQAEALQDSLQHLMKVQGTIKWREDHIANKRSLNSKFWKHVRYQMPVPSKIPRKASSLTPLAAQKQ

Target: Interleukin-1 receptor-like 1 (Homo sapiens) (UniProt Q01638)
Experiment: blocks human ST2 binding to IL-33, primary screen, biochemical, AlphaLISA (AID 1259354)
Settings: AlphaLISA ST2-Fc/biotin-IL-33 interaction, 1 h; at 17 µM, stronger effect = higher value

Compound | inhibition
COc1ccc(C(=O)N2CCN(c3ccc([N+](=O)[O-])cc3)CC2)cc1OC | inactive
Fc1ccc(-c2csc(-c3cccnc3)n2)cc1 | inconclusive: 14%
CCn1c(C)nc2cc(Cl)ccc21 | inconclusive: 12%
CCC(C)N(Cc1ccccc1F)C(=O)c1cc(NC(C)=O)cc(NC(C)=O)c1 (centres undefined) | inconclusive: 12%
COc1cccc(CC2(CO)CCCN(c3cnc4ccccc4n3)C2)c1 (centres undefined) | inconclusive: 12%
N#Cc1nc(COc2ccccc2Cl)oc1N1CCN(Cc2ccccc2)CC1 | active: 58%
Cc1[nH][nH]c(=O)c1C(c1cc2c(cc1Br)OCO2)c1c(C)[nH][nH]c1=O | inconclusive: 15%
COc1ccc(-c2cc3cc(Br)ccc3oc2=O)cc1 | inactive
Cc1cc(C(=O)N2CCCC3(CC2)CN(C)C(=O)O3)c2c(C)nn(C)c2n1 (centres undefined) | inconclusive: 13%
COc1cccc(-c2cn(Cc3nc(C)cc(C(F)(F)F)n3)nn2)c1OC | inconclusive: 11%
O=C(Nc1ccc(S(=O)(=O)Nc2nccs2)cc1)C1COc2ccccc2O1 (centres undefined) | inactive
O=C(NCCC1=CCCCC1)c1cc2cc3ccc(Cl)cc3nc2o1 | inconclusive: 14%
Cc1c(CN(C)Cc2ncc[nH]2)[nH]c2ccccc12 | inconclusive: 10%
Cc1cc(SCc2ccccc2)n2ncnc2n1 | inconclusive: 12%
Cc1cccc(C(C)C)c1NC(=O)c1cncc(Br)c1 | inactive
Brc1ccc(-c2cn3ccc4ccccc4c3n2)cc1 | inactive
Cc1csc(NC(=O)CCc2c(C)nc3cc(-c4ccccc4)nn3c2C)n1 | inactive
COc1ccc(OC)c(C2CC(=O)N3CN(c4cccc(Cl)c4)CSC3=C2C#N)c1 (centres undefined) | inconclusive: 13%
COc1ccc2[nH]c(=O)c(CN(C)CCc3scnc3C)cc2c1 | inconclusive: 12%
COc1cccc(Cn2nc(C(=O)NC3CC3)c3c2CCN(C(=O)c2ccc(-n4cccn4)cc2)C3)c1 | inactive
Cc1cccc(NC(=O)CNCC2(c3ccccc3)CCOCC2)c1C | inconclusive: 12%
CC/C(=C(\c1ccccc1)c1ccc(OCCN(C)C)cc1)c1ccccc1 | inconclusive: 26%

Compound | inhibition
O=C(CN1CCCN(Cc2ccccc2)S1(=O)=O)NC1CCCCC1 | inconclusive: 14%
O=[N+]([O-])c1ccc(CSc2ccccc2)cc1 | inconclusive: 15%
Oc1ccccc1-c1nc(NCCc2ccccc2)c2ccccc2n1 | inconclusive: 10%
c1cn(-c2ccc(C3NCCc4[nH]cnc43)cc2)cn1 (centres undefined) | inconclusive: 10%
COCc1cc(N2CCOC(C(F)(F)F)C2)ncn1 (centres undefined) | inconclusive: 10%
Oc1ccc(-c2[nH]ncc2Oc2ccccc2)c(O)c1O | active: 51%
O=C(Nc1cccnc1)c1ccc(S(=O)(=O)c2ccc(Cl)cc2)cc1 | inconclusive: 20%
Cc1ccc(N=Cc2nc(-c3ccccc3F)oc2O)cc1Cl | inconclusive: 22%
CC1=C(C(=O)Nc2ccccn2)C(c2ccc([N+](=O)[O-])cc2)C2=C(CC(C)(C)CC2=O)N1 (centres undefined) | inactive
Cc1nc2cc(-c3ccccc3)nn2c(C)c1CCC(=O)N1CCN(Cc2ccccc2)CC1 | inconclusive: 12%
c1coc(CN2CC[C@H](c3nnc(-c4ccncc4)o3)C2)c1 | inconclusive: 10%
CN(C)c1ccc(/C=C2\N=C(c3ccccc3Br)OC2=O)cc1 | active: 41%
O=C(c1cc2ccccc2[nH]c1=O)N1C[C@@H]2C3CCC(CC3)[C@@H]2C1 | inactive
NCC1CN(c2nccc(C3CCCC3)n2)CCO1 (centres undefined) | inconclusive: 10%
Cc1ccc(S(=O)(=O)N=C2C=C(NS(=O)(=O)c3ccccc3)C(=O)c3ccccc32)cc1 | inconclusive: 20%
O=C(Cn1cnc2c(cnn2-c2ccc(Cl)cc2)c1=O)N1CCCCCC1 | inconclusive: 14%
O=S1(=O)N=C(c2ccc(Br)cc2)Nc2ccccc21 | inactive
COc1ccc2nc3oc(C(=O)NCc4ccc5c(c4)OCO5)cc3cc2c1 | inconclusive: 25%
c1nc(Nc2ccc3c(c2)OCCO3)c2[nH]cnc2n1 | inconclusive: 14%
CC(=O)N1CCC(N2CC[C@H](c3nc4ccccc4s3)C2)CC1 | inactive
Cc1cc(Br)ccc1NC(=O)c1ccc(F)cc1 | inconclusive: 13%
CN(C)/C=C/C=C/C=C1\CCC/C(=C\C=C\N(C)C)C1=O | active: 63%

As entered above.
O=C(Nc1cccnc1)c1ccc(S(=O)(=O)c2ccc(Cl)cc2)cc1 | inhibition: inconclusive: 20%
O=C(Cn1cnc2c(cnn2-c2ccc(Cl)cc2)c1=O)N1CCCCCC1 | inhibition: inconclusive: 14%
O=C(c1cc2ccccc2[nH]c1=O)N1C[C@@H]2C3CCC(CC3)[C@@H]2C1 | inhibition: inactive
O=C(CN1CCCN(Cc2ccccc2)S1(=O)=O)NC1CCCCC1 | inhibition: inconclusive: 14%

The list goes on.

Compound | inhibition
CCCOc1ccccc1/C=C1\SC(N2CCOCC2)=NC1=O | inconclusive: 12%
Cc1cc(C)n(-c2ccc(N3CCOCC3)nn2)n1 | inconclusive: 11%
C=CCOc1ccc(/C=C2\C(=O)N(c3ccccc3)N=C2C)cc1OC | inconclusive: 26%
Cc1c(C)n(CC(O)CN2CCOCC2)c2ccccc12 (centres undefined) | inactive
CC(CN1CCc2ccccc2C1)NC(=O)c1cccc2ccnn12 (centres undefined) | inactive
O=C(NC1CCCN(Cc2ccccc2F)C1)C1=CCCC1 (centres undefined) | inactive
CSc1nc2ccc(N=Cc3ccc(O)cc3)cc2s1 | inconclusive: 10%
Cn1c(=O)c2cc(S(=O)(=O)Nc3cccc(F)c3)ccc2n(C)c1=O | inconclusive: 10%
O=S(=O)(Nc1ccc(F)c(F)c1)c1cccc2cccnc12 | inconclusive: 10%
Cc1ccc(F)cc1-c1cnc(N)cn1 | inconclusive: 18%
NCCC(c1ccccc1)c1ccco1 (centres undefined) | inactive
O=C(NCCSc1c[nH]c2ccccc12)c1ccccc1 | inconclusive: 10%
CCOc1ncccc1-c1cc(N2CCOCC2)nc(N)n1 | inactive
CCOc1ccc(C(=O)NCc2nc3cccnc3n2CCOC)cc1 | inconclusive: 15%
COc1ccc(OC)c(C2C(C#N)=C(N)Oc3cc(O)c(Cl)cc32)c1 (centres undefined) | inactive
O=C(c1ccccn1)C1CCCN(c2nccc(CCC(F)(F)F)n2)C1 (centres undefined) | inconclusive: 18%
Cc1ccnc(Nc2nc(-c3ccccn3)cs2)c1 | inactive
COC(=O)c1cc2n(n1)CCCN(C(=O)c1nnn(Cc3ccccc3)c1C)C2 | inconclusive: 14%
COc1cc(F)c(-c2c(-c3ccccc3)ncn2CCCO)cc1OC | inconclusive: 10%
O=C(Nc1cccc(F)c1)Nc1ccnn1C1CCN(C(=O)C#Cc2ccccc2)CC1 | inconclusive: 13%
